Binding data for 5 molecules are collected here from article doi:10.1101/808782.

The chains behind the UniProt entries cited, without tags or fusion partners. Where a name states a change or a piece, a line headed by the entry shows the natural chain unless it says otherwise.
UniProt P60953: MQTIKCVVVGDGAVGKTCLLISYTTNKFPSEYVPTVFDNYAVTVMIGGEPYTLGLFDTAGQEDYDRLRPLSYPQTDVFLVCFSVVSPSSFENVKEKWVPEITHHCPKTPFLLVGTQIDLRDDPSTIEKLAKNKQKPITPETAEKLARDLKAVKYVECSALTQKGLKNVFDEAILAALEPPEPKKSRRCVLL
UniProt P46940: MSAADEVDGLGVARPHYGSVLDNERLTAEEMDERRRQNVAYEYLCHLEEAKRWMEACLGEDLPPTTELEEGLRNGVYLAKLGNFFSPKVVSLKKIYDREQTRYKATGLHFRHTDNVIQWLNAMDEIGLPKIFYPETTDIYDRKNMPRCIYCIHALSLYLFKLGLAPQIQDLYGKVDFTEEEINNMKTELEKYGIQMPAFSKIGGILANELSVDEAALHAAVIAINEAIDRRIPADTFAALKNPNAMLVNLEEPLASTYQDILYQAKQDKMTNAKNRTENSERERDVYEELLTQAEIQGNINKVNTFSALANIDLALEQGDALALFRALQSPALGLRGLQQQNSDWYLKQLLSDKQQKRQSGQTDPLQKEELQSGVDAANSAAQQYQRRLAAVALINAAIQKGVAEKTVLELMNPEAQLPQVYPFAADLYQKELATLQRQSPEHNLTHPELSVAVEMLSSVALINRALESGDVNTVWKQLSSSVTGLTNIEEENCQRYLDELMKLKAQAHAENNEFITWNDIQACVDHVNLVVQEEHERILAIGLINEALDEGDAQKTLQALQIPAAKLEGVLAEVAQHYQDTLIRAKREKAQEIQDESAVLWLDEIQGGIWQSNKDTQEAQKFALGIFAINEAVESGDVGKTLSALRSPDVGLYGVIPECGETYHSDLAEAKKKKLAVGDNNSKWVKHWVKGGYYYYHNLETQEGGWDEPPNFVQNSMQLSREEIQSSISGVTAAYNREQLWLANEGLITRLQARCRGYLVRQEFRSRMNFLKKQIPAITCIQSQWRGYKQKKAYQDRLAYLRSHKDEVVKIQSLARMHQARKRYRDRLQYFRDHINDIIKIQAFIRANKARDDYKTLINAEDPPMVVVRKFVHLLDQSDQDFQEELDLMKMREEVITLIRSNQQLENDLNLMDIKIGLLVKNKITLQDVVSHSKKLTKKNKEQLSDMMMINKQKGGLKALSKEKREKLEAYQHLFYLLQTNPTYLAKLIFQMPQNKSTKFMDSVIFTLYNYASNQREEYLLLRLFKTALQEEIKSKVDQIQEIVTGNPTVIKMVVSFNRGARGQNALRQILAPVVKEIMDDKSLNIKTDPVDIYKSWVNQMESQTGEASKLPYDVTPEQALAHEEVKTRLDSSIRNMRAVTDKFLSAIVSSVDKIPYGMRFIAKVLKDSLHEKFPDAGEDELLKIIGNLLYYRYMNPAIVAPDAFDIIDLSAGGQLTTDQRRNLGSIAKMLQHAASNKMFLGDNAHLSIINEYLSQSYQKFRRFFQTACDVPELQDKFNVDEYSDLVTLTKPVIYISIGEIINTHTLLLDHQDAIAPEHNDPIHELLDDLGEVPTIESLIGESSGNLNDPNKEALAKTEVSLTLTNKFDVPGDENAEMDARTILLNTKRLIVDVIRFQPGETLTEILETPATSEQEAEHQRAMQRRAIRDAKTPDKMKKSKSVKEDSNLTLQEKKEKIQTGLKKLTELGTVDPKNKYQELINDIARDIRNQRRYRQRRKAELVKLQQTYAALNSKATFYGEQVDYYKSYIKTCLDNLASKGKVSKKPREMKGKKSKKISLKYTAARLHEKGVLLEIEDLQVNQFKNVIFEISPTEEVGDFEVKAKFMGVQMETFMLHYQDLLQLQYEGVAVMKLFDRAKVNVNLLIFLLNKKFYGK
UniProt P60660: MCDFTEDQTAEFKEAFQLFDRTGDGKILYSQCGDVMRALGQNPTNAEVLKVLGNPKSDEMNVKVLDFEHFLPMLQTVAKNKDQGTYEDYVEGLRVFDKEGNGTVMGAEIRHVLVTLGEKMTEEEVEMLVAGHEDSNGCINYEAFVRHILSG
UniProt Q86VI3: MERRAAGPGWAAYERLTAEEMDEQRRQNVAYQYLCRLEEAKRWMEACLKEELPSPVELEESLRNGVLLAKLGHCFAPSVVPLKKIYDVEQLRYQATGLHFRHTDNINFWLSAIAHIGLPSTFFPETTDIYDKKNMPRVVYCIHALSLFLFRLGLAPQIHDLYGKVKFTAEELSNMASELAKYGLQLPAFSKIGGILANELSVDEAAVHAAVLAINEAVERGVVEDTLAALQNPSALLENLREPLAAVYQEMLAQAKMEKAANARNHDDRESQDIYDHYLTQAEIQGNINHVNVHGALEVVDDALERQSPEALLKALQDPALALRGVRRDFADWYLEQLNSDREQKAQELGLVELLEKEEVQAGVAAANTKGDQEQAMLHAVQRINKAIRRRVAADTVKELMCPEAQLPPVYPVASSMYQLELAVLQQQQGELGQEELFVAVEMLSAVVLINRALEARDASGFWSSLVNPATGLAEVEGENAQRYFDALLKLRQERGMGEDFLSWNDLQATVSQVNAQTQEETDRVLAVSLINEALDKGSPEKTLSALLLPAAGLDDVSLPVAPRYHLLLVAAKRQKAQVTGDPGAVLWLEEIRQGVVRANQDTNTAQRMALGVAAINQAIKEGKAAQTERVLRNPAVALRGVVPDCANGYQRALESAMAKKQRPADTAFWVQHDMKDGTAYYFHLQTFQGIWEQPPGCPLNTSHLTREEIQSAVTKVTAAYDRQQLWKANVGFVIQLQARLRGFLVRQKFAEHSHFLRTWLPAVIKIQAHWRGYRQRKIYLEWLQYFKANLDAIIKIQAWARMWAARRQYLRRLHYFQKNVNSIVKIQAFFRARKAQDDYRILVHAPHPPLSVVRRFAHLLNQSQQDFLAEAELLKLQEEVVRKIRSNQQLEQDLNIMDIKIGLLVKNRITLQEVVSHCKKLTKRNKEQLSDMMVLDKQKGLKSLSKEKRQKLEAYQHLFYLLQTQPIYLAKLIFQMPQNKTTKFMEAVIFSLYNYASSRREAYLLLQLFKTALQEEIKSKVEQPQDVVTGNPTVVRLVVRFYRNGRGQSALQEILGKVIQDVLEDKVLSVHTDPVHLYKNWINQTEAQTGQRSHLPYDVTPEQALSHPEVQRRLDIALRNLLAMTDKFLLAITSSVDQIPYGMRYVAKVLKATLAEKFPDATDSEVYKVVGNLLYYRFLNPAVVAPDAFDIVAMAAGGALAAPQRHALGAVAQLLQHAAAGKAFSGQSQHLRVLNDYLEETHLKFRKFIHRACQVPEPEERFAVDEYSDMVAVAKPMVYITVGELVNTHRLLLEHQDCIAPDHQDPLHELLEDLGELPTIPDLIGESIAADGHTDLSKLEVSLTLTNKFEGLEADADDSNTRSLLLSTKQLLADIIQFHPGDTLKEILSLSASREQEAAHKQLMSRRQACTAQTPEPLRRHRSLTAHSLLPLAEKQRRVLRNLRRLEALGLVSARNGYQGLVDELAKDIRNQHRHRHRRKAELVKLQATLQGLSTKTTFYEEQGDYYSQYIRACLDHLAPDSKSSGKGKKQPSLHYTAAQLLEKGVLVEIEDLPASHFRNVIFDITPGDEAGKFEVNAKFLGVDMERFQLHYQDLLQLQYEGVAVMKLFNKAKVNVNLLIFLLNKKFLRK
UniProt Q96GI7: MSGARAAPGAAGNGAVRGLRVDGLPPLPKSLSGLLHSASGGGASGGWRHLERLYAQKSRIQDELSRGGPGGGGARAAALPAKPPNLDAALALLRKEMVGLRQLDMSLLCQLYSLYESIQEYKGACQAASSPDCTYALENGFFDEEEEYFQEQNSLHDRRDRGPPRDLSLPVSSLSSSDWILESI

No constants are given. Whether binding was seen depends on the method and setting. In cells and extracts the contact can be indirect. These calls come from enrichment with a bait or labelling near it, and not all partners need be listed.

The target of assay [1] is GFP-tagged Cdc42 R186C (human) (UniProt P60953). Description: affinity purification with mass spectrometry.
Assay [2] addresses GFP-tagged wild-type Cdc42 (human) (UniProt P60953). The experiment in a line: affinity purification with mass spectrometry.

Consider “partner encoded by the IQGAP1 gene (from UniProt P46940 1-1657)”, for which the binding result in assay [1] is “binds”.
As for “partner encoded by the MYL6 gene (from UniProt P60660 1-151)”, the binding entry in assay [1] and in assay [2] was “binds” throughout.
IQGAP3 (from UniProt Q86VI3 1-1631): the binding entry in assay [1] and in assay [2] was “binds” in each case.
Consider “partner encoded by the FAM89A gene (from UniProt Q96GI7 1-184)”, for which the binding entry in assay [1] and in assay [2] was “binds” in each case.

B1: partner encoded by the FIGNL2 gene (protein, UniProt A6NMB9 1-653)
chain: MHWTPEHAQPLNQWPEQHLDVSSTTPSPAHKLELPPGGRQRCHYAWAHDDISALTASNLLKRYAEKYSGVLDSPYERPALGGYSDASFLNGAKGDPEPWPGPEPPYPLASLHEGLPGTKSGGGGGSGALGGSPVLAGNLPEPLYAGNACGGPSAAPEYAAGYGGGYLAPGYCAQTGAALPPPPPAALLQPPPPPGYGPSAPLYNYPAGGYAAQPGYGALPPPPGPPPAPYLTPGLPAPTPLPAPAPPTAYGFPTAAPGAESGLSLKRKAADEGPEGRYRKYAYEPAKAPVADGASYPAADNGECRGNGFRAKPPGAAEEASGKYGGGVPLKVLGSPVYGPQLEPFEKFPERAPAPRGGFAVPSGETPKGVDPGALELVTSKMVDCGPPVQWADVAGQGALKAALEEELVWPLLRPPAYPGSLRPPRTVLLFGPRGAGKALLGRCLATQLGATLLRLRGATLAAPGAAEGARLLQAAFAAARCRPPSVLLISELEALLPARDDGAAAGGALQVPLLACLDGGCGAGADGVLVVGTTSRPAALDEATRRRFSLRFYVALPDSPARGQILQRALAQQGCALSERELAALVQGTQGFSGGELGQLCQQAAAGAGLPGLQRPLSYKDLEAALAKVGPRASAKELDSFVEWDKMYGSGH
B1: the binding entry in assay [1] and in assay [2] was “binds” throughout.
